No constants are given. Whether binding was seen depends on the method and setting. In cells and extracts the contact can be indirect. Where a sequence is shown, tags or fusion partners need not be part of it.
What was measured:
[1] = target: T1, Dhp1-myc (Schizosaccharomyces pombe) (UniProt P40848); assay: co-IP; total cell lysates of S. pombe strains expressing Rhn1-PK alone or with Dhp1-myc, Din1-myc or Pcf11-myc; immunoprecipitation with anti-myc; immunoprecipitates and inputs analysed on Western blots
T1 sequence: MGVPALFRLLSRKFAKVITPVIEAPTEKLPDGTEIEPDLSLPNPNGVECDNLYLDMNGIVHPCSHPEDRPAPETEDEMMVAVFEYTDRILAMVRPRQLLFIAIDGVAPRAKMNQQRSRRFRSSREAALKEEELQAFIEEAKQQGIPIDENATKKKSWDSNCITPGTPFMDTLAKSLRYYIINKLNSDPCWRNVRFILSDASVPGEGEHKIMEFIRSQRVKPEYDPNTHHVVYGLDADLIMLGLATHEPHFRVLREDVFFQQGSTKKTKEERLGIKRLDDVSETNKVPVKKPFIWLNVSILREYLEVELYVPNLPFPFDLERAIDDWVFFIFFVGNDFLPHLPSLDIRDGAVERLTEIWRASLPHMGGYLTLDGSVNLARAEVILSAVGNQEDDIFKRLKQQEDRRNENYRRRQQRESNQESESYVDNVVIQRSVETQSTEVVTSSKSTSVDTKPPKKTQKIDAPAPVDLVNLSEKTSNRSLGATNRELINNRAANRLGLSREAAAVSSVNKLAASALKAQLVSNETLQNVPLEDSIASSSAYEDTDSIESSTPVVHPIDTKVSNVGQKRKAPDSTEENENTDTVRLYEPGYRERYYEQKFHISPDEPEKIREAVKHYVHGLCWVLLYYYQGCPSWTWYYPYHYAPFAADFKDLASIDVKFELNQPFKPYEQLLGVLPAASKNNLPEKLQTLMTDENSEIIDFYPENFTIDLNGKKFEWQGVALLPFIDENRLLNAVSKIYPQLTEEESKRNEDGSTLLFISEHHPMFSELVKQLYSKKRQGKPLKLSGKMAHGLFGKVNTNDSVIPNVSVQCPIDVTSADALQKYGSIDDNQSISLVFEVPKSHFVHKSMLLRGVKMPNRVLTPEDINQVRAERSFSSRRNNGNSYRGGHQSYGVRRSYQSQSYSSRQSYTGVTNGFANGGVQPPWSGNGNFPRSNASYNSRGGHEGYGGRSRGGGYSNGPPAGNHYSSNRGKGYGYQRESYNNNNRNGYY

[2] = target: T2, Din1-myc (Schizosaccharomyces pombe) (UniProt O13836); assay: as above
T2 sequence: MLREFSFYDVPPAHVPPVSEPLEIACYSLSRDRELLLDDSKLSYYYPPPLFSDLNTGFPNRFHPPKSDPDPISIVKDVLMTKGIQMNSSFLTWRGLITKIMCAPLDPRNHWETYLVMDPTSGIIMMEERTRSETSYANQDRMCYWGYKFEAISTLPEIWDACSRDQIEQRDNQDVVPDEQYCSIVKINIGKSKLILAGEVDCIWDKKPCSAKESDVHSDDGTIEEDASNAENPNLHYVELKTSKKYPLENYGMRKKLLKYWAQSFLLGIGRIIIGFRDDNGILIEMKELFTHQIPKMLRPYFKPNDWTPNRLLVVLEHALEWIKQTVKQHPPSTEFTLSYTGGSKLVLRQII

binding [1]: no binding
binding [2]: no binding
B1: Rhn1-PK (protein, UniProt O74814 1-387)
chain: MALTPDTVSSKLATLNETQESITGIAHWVMFHKRYADEIVQIWLEALYESSSNKKLLLLYLLNEVVQQSRVKKISEYIDAVSPYVVNSVADAYASVPASIKTKIKYVFDVWCQRGIFSKEILLSLQERFNNAENSGHSNYYPVGPPEWAPYTRLMTQTSLYAKSAHSTKTVVDALYKSYLEKQSDYSELLDNYKKQLNKASESCKGNYQACIESRSTLITSLESLIEEQKKLLSEEEESLKSVESIISNLENKESTTATSTLTDAGFGDKSSTAGKHNVETTSPPSSSPNSDDAYSPQVDSYSPSINSVPYTSNIVENPSEDNLSPLPPPASGPYSQEEEETSLFKSQRKEENEEESKELPEDSDIYGKDSSPSSDDSSAAGLYGDS
